Measurements from article doi:10.1101/2025.06.13.659598.

What was measured:
[1] = molecular target: GST-nesprin-2 SR11-13 (human); experiment: pull-down
[2] = molecular target: GST-nesprin-2 SR11-12 (human); experiment: pull-down

binding [1]: binds
binding [2]: binds
B1: FLAG-tagged FHOD1 (protein, UniProt Q9Y613 1-1164)
chain: MAGGEDRGDGEPVSVVTVRVQYLEDTDPFACANFPEPRRAPTCSLDGALPLGAQIPAVHRLLGAPLKLEDCALQVSPSGYYLDTELSLEEQREMLEGFYEEISKGRKPTLILRTQLSVRVNAILEKLYSSSGPELRRSLFSLKQIFQEDKDLVPEFVHSEGLSCLIRVGAAADHNYQSYILRALGQLMLFVDGMLGVVAHSDTIQWLYTLCASLSRLVVKTALKLLLVFVEYSENNAPLFIRAVNSVASTTGAPPWANLVSILEEKNGADPELLVYTVTLINKTLAALPDQDSFYDVTDALEQQGMEALVQRHLGTAGTDVDLRTQLVLYENALKLEDGDIEEAPGAGGRRERRKPSSEEGKRSRRSLEGGGCPARAPEPGPTGPASPVGPTSSTGPALLTGPASSPVGPPSGLQASVNLFPTISVAPSADTSSERSIYKARFLENVAAAETEKQVALAQGRAETLAGAMPNEAGGHPDARQLWDSPETAPAARTPQSPAPCVLLRAQRSLAPEPKEPLIPASPKAEPIWELPTRAPRLSIGDLDFSDLGEDEDQDMLNVESVEAGKDIPAPSPPLPLLSGVPPPPPLPPPPPIKGPFPPPPPLPLAAPLPHSVPDSSALPTKRKTVKLFWRELKLAGGHGVSASRFGPCATLWASLDPVSVDTARLEHLFESRAKEVLPSKKAGEGRRTMTTVLDPKRSNAINIGLTTLPPVHVIKAALLNFDEFAVSKDGIEKLLTMMPTEEERQKIEEAQLANPDIPLGPAENFLMTLASIGGLAARLQLWAFKLDYDSMEREIAEPLFDLKVGMEQLVQNATFRCILATLLAVGNFLNGSQSSGFELSYLEKVSEVKDTVRRQSLLHHLCSLVLQTRPESSDLYSEIPALTRCAKVDFEQLTENLGQLERRSRAAEESLRSLAKHELAPALRARLTHFLDQCARRVAMLRIVHRRVCNRFHAFLLYLGYTPQAAREVRIMQFCHTLREFALEYRTCRERVLQQQQKQATYRERNKTRGRMITETEKFSGVAGEAPSNPSVPVAVSSGPGRGDADSHASMKSLLTSRPEDTTHNRRSRGMVQSSSPIMPTVGPSTASPEEPPGSSLPSDTSDEIMDLLVQSVTKSSPRALAARERKRSRGNRKSLRRTLKSGLGDDLVQALGLSKGPGLEV

Results are given in words; binding and its absence hold for the method and conditions named. In cells and extracts the contact can be indirect. Binding can be weak; no strength is given. Where a sequence is shown, tags or fusion partners need not be part of it.
